No constants are given. Whether binding was seen depends on the method and setting. In cells and extracts the contact can be indirect. Some results given as binding are weak or reduced against the parent protein; the word gives no strength.
Tests used:
[1] = target: Myc-tagged HSP60 (mouse, full length), overexpressed (mouse) (UniProt P63038); assay: co-IP; overexpressed HSP60 with endogenous AdipoR1 in H9c2 cells or endogenous AdipoR2 in HepIR cells; western blot; done as in ref. 6
[2] = target: GST-HSP60 (heat shock protein 60, mouse, full length, GST fusion) (mouse) (UniProt P63038); assay: pull-down; GST-HSP60 or GST control as bait; endogenous AdipoR1 from H9c2 cells or AdipoR2 from HepIR cells, detected by western blot; done as in ref. 6; only the target purified

The chains behind the UniProt entries cited, without tags or fusion partners. Residues count along the entry.
UniProt P63038, residues 27-573: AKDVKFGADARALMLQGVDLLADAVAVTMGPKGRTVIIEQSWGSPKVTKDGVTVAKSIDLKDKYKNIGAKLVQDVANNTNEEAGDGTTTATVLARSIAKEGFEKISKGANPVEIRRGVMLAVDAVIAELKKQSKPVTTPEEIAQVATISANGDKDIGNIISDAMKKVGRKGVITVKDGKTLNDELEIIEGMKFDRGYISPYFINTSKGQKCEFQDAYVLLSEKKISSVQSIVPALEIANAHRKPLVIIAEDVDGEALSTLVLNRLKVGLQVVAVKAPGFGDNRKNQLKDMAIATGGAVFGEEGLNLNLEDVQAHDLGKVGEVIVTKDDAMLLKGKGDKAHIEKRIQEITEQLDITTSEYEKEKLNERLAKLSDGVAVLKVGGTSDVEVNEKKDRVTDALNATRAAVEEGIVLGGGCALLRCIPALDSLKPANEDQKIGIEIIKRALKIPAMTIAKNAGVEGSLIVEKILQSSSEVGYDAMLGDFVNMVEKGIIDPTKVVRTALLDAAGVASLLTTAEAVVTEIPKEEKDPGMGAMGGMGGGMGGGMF

B1: Adiponectin receptor 2 (AdipoR2), endogenous in HepIR cells (receptor, UniProt Q8BQS5 1-386)
chain: MNEPAKHRLGCTRTPEPDIRLRKGHQLDDTRGSNNDNYQGDLEPSLETPVCSSYYENSPEEPECHDDNSQEDEGFMGMSPLLQAHHAMERMEEFVCKVWEGRWRVIPHDVLPDWLKDNDFLLHGHRPPMPSFRACFKSIFRIHTETGNIWTHLLGCVFFLCLGIFYMFRPNISFVAPLQEKVVFGLFFLGAILCLSFSWLFHTVYCHSEGVSRLFSKLDYSGIALLIMGSFVPWLYYSFYCNPQPCFIYLIVICVLGIAAIIVSQWDMFATPQYRGVRAGVFVGLGLSGIIPTLHYVISEGFLKAATIGQIGWLMLMASLYITGAALYAARIPERFFPGKCDIWFHSHQLFHIFVVAGAFVHFHGVSNLQEFRFMIGGGCTEEDAL
With B1 the binding [1] was “binds” and the binding [2] was “binds”.

— paper PMC7147001
